In article PMC6239283:
Results are given in words; binding and its absence hold for the method and conditions named. For some assays here: In cells and extracts the contact can be indirect. Some binding calls cover weakened binding; strength is not graded here. Where a sequence is shown, tags or fusion partners need not be part of it.

T1: OsTGA5 (yeast two-hybrid fusion) (rice (Oryza sativa)) (UniProt Q0JNL3)
T1 sequence: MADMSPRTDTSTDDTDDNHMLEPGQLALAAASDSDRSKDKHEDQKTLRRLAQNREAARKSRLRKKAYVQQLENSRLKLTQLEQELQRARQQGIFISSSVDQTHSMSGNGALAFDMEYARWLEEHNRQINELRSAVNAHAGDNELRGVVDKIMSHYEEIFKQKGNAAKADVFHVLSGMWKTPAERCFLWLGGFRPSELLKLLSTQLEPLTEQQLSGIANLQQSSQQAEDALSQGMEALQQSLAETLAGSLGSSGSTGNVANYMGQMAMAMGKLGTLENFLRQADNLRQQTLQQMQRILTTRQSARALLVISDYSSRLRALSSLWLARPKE

T2: OsTGA3 (BiFC split-YFP fusion) (rice (Oryza sativa)) (UniProt Q6IVC3)
T2 sequence: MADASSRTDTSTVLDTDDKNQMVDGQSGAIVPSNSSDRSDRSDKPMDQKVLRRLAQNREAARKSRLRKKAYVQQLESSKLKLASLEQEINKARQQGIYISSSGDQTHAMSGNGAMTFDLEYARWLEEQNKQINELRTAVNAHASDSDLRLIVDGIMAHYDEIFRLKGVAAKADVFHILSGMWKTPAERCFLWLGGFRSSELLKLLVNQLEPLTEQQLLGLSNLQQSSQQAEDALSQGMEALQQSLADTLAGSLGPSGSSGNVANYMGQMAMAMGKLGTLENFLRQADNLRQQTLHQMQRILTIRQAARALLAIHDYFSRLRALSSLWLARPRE

T3: OsTGA5 (BiFC split-YFP fusion) (rice (Oryza sativa)) (UniProt Q0JNL3)
T3 sequence: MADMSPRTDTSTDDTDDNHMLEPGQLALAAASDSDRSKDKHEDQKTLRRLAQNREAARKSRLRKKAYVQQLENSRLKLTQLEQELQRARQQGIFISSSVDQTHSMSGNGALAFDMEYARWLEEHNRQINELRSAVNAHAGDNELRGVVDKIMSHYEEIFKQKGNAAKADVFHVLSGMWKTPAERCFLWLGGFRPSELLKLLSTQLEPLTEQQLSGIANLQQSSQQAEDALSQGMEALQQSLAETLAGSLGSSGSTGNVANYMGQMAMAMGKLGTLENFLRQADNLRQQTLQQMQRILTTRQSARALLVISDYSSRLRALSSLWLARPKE

T4: OsTGA3 (yeast two-hybrid fusion) (rice (Oryza sativa)) (UniProt Q6IVC3)
T4 sequence: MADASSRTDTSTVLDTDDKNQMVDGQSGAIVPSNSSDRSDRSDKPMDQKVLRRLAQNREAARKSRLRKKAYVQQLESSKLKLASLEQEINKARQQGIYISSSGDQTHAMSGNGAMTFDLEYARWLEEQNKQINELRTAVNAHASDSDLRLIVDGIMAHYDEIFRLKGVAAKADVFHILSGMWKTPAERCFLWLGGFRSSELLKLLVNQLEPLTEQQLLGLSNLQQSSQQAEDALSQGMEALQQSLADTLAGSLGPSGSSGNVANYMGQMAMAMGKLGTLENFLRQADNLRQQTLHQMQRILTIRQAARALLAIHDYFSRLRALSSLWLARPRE

T5: OsTGA2 (yeast two-hybrid fusion) (rice (Oryza sativa)) (UniProt Q6IVC2)
T5 sequence: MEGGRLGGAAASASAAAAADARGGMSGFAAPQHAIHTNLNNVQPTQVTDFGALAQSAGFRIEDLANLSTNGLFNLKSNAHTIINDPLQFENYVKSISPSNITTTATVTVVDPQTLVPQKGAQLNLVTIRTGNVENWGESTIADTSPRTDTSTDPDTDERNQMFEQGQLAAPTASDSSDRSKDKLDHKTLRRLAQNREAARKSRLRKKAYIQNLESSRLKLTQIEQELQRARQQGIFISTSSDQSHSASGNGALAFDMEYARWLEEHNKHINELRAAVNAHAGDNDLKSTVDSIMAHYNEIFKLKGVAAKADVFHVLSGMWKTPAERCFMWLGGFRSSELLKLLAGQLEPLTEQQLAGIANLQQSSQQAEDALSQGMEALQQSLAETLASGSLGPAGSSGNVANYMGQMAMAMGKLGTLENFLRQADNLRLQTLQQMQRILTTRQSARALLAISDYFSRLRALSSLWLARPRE


Columns and labels:
[1] = molecular target: T1, OsTGA5 (yeast two-hybrid fusion) (rice (Oryza sativa)); test: two-hybrid; … Y2H system (Clontech); OsTGAs in pGBKT7 (bait), NHs or OsTGAs in pGADT7 (prey); co-transformed into yeast; growth on SD without leucine, tryptophan and histidine with 1 to 10 mM 3-AT; images on the third day
[2] = molecular target: T2, OsTGA3 (BiFC split-YFP fusion) (rice (Oryza sativa)); test: split reporter; BiFC in rice protoplasts transfected using PEG; OsTGAs fused to cYFP (and nYFP for dimer tests), NHs fused to nYFP; reconstituted YFP seen by confocal microscopy
[3] = molecular target: T3, OsTGA5 (BiFC split-YFP fusion) (rice (Oryza sativa)); test: as above
[4] = molecular target: T4, OsTGA3 (yeast two-hybrid fusion) (rice (Oryza sativa)); test: two-hybrid; … Y2H system (Clontech); OsTGAs in pGBKT7 (bait), NHs or OsTGAs in pGADT7 (prey); co-transformed into yeast; growth on SD without leucine, tryptophan and histidine with 1 to 10 mM 3-AT; images on the third day
[5] = molecular target: T5, OsTGA2 (yeast two-hybrid fusion) (rice (Oryza sativa)); test: as above

Row | Binder | binding [1] | binding [2] | binding [3] | binding [4] | binding [5]
1 | OsNH4, rice NPR1 homolog 4 (yeast two-hybrid fusion) (protein, UniProt A2CIR7 1-506) MEETLKSLSMDYLNLLINGQAFSDVTFSVEGRLVHAHRCILAARSLFFRKFFCGAAADQAAAPPGALLLDHLSPRSPSGGASASSPRGAGGSAAAAAAATPGAVIPVSSVSYEVFLLLLQFLYSGQVSLVPQKGEPRPGCGERGCWHTHCAAAVDLALDTLAAARSFGVEELALLTQKQLAGMVEKASIEDVMKVLMASRKQDLHQLWTTCSHLVAKSGLPPEVLAKHLPIDVVAKIDELRLKSMSRRSPFLSHHHHHPHAAAAGIEASSAAELDDHHKIRRMRRALDSSDVELVKLMVMGEGLNLDDALALHYAVENCSREVVKALLELGAADVNHPAGPAGKTPLHVAAEMVCPDMVAVLLDHHADPNVRTVDGVTPLDILRTLTSDFLFKGAVPGLAHIEPNKLRLCLELVQSAAMVMSREDAQTAAVNAAPIYGESPGGGGGGGVYNASGTSSSMVNLSLDNRMVYLNLGMDAQFGKMNDGGDGDDGGSRGPSSLFSPHGFP | binds | – | – | – | –
2 | OsNH4, rice NPR1 homolog 4 (BiFC nYFP fusion) (protein, UniProt A2CIR7 1-506) MEETLKSLSMDYLNLLINGQAFSDVTFSVEGRLVHAHRCILAARSLFFRKFFCGAAADQAAAPPGALLLDHLSPRSPSGGASASSPRGAGGSAAAAAAATPGAVIPVSSVSYEVFLLLLQFLYSGQVSLVPQKGEPRPGCGERGCWHTHCAAAVDLALDTLAAARSFGVEELALLTQKQLAGMVEKASIEDVMKVLMASRKQDLHQLWTTCSHLVAKSGLPPEVLAKHLPIDVVAKIDELRLKSMSRRSPFLSHHHHHPHAAAAGIEASSAAELDDHHKIRRMRRALDSSDVELVKLMVMGEGLNLDDALALHYAVENCSREVVKALLELGAADVNHPAGPAGKTPLHVAAEMVCPDMVAVLLDHHADPNVRTVDGVTPLDILRTLTSDFLFKGAVPGLAHIEPNKLRLCLELVQSAAMVMSREDAQTAAVNAAPIYGESPGGGGGGGVYNASGTSSSMVNLSLDNRMVYLNLGMDAQFGKMNDGGDGDDGGSRGPSSLFSPHGFP | – | binds weakly | binds weakly | – | –
3 | OsNH2, rice NPR1 homolog 2 (yeast two-hybrid fusion) (protein, UniProt Q0JJ01 1-635) MPARSAVVVIAMEPSSSITIASSSSYLSNGSSPCSVSLAPPGAGAVAAQAAPVAAGEGGGGGGGGGGGGSSSVEVVSLNRLSANLERLLLDSDLDCSDADVDVADGGPPVPVHRCILAARSTFFYNLFAARGRGGDGAAGGGGGGGGGGGERTGGRPRYKMEELVPGGRVGRDAFLSLLGYLYTGKLRPAPDDVVSCADPMCPHDSCPPAIRFNVEQMYAAWAFKITELISLFQRRLLNFVDKTLVEDVLPILQVAFHSELTPVLEKCIRRIARSNLDNVSLDKELPPEVAVQIKEIRQKSQPNEGDTVISDPVHEKRVRRIHRALDSDDVELVKLLLNESEITLDDANALHYAAAYCDSKVVSELLDLRLANLNLKNSRGYTALHLAAMRREPAIIMCLLNKGAAVSQLTADGQSAMSICRRLTRMKDYNTKMEQGQESNKDRLCIDILDREMIRKPMAVEDSVTSPLLADDLHMKLLYLENRVAFARLFFPAEAKVAMQIAQADTTPEFGIVPAASTSGKLKEVDLNETPVTQNKRLRSRVDALMKTVELGRRYFPNCSQVLDKFLEDDLPDSPDALDLQNGTSDEQNVKRMRFCELKEDVRKAFSKDRADNSMFSILSSSSSSSPPPKVAKK | binds | – | – | binds | binds
4 | OsNH3, rice NPR1 homolog 3 (BiFC nYFP fusion) (protein, UniProt Q75HA6 1-589) METSTISFSSSSPPSPPPPQPAPGDIDAVSLGRLSRNLENLLDPAFLNCADAEIVLASGGGDPGGGAVVGVHRCILAARSRFFYDHFSSAPAPAPATAGDKPQLDLDGLVPGGRHIGRDALVAVLSYLYTGRLRSAPPEAAACLDDGCSHDACRPAIDFVVESTYAASGFQISELVSLFQRRLSDFVNKALAEDILPILVVASTCHLPELLNQCIQRVANSNLDNRYLEKRLPDDLYAKLKEFRVPDEPHSGILDPEHEKRVRNIHKALDSDDVDLVGMLLKESPVTLDDAFAIHYAAAYCEPKVLAELLKLESANVNLKNSSGYTPLHMACMRREPDIIVSLIEKGASVLERTQDGRDALTICKRLTREKDRNEKSEKCKERSKAYLCIGVLQQEIKRRPQILEDQMSAEESIATPLLVDNFHMRLLNLENRVAFARIFFPSEAKLVMRIAQADSTQEFAGLTSANFSKLKEVDLNETPTMQNRRLRERLDALTKTVELGRRYFPHCSEVLDKFLNEESTDLILLESGTAEDQQTKRMRFSELREDVRKAFTKDKAAGAAISSSTSASSSPRYETKLRPGNKKGKLSR | – | binds | binds | – | –
5 | OsTGA3 (BiFC split-YFP fusion) (protein, UniProt Q6IVC3 1-333) MADASSRTDTSTVLDTDDKNQMVDGQSGAIVPSNSSDRSDRSDKPMDQKVLRRLAQNREAARKSRLRKKAYVQQLESSKLKLASLEQEINKARQQGIYISSSGDQTHAMSGNGAMTFDLEYARWLEEQNKQINELRTAVNAHASDSDLRLIVDGIMAHYDEIFRLKGVAAKADVFHILSGMWKTPAERCFLWLGGFRSSELLKLLVNQLEPLTEQQLLGLSNLQQSSQQAEDALSQGMEALQQSLADTLAGSLGPSGSSGNVANYMGQMAMAMGKLGTLENFLRQADNLRQQTLHQMQRILTIRQAARALLAIHDYFSRLRALSSLWLARPRE | – | binds | – | – | –

Next, values leading:

Row | binding [1] | binding [2] | binding [3] | binding [4] | binding [5] | Binder
6 | binds | – | – | binds | – | OsTGA5 (yeast two-hybrid fusion) (protein, UniProt Q0JNL3 1-329) MADMSPRTDTSTDDTDDNHMLEPGQLALAAASDSDRSKDKHEDQKTLRRLAQNREAARKSRLRKKAYVQQLENSRLKLTQLEQELQRARQQGIFISSSVDQTHSMSGNGALAFDMEYARWLEEHNRQINELRSAVNAHAGDNELRGVVDKIMSHYEEIFKQKGNAAKADVFHVLSGMWKTPAERCFLWLGGFRPSELLKLLSTQLEPLTEQQLSGIANLQQSSQQAEDALSQGMEALQQSLAETLAGSLGSSGSTGNVANYMGQMAMAMGKLGTLENFLRQADNLRQQTLQQMQRILTTRQSARALLVISDYSSRLRALSSLWLARPKE
7 | – | binds | binds | – | – | OsTGA5 (BiFC split-YFP fusion) (protein, UniProt Q0JNL3 1-329) MADMSPRTDTSTDDTDDNHMLEPGQLALAAASDSDRSKDKHEDQKTLRRLAQNREAARKSRLRKKAYVQQLENSRLKLTQLEQELQRARQQGIFISSSVDQTHSMSGNGALAFDMEYARWLEEHNRQINELRSAVNAHAGDNELRGVVDKIMSHYEEIFKQKGNAAKADVFHVLSGMWKTPAERCFLWLGGFRPSELLKLLSTQLEPLTEQQLSGIANLQQSSQQAEDALSQGMEALQQSLAETLAGSLGSSGSTGNVANYMGQMAMAMGKLGTLENFLRQADNLRQQTLQQMQRILTTRQSARALLVISDYSSRLRALSSLWLARPKE
8 | – | – | – | binds | – | OsTGA3 (yeast two-hybrid fusion) (protein, UniProt Q6IVC3 1-333) MADASSRTDTSTVLDTDDKNQMVDGQSGAIVPSNSSDRSDRSDKPMDQKVLRRLAQNREAARKSRLRKKAYVQQLESSKLKLASLEQEINKARQQGIYISSSGDQTHAMSGNGAMTFDLEYARWLEEQNKQINELRTAVNAHASDSDLRLIVDGIMAHYDEIFRLKGVAAKADVFHILSGMWKTPAERCFLWLGGFRSSELLKLLVNQLEPLTEQQLLGLSNLQQSSQQAEDALSQGMEALQQSLADTLAGSLGPSGSSGNVANYMGQMAMAMGKLGTLENFLRQADNLRQQTLHQMQRILTIRQAARALLAIHDYFSRLRALSSLWLARPRE
